The values that follow come from paper PMC5146969.

Protein sequences, listed by entry. Tags and fused reporters are not part of them.
UniProt Q04207: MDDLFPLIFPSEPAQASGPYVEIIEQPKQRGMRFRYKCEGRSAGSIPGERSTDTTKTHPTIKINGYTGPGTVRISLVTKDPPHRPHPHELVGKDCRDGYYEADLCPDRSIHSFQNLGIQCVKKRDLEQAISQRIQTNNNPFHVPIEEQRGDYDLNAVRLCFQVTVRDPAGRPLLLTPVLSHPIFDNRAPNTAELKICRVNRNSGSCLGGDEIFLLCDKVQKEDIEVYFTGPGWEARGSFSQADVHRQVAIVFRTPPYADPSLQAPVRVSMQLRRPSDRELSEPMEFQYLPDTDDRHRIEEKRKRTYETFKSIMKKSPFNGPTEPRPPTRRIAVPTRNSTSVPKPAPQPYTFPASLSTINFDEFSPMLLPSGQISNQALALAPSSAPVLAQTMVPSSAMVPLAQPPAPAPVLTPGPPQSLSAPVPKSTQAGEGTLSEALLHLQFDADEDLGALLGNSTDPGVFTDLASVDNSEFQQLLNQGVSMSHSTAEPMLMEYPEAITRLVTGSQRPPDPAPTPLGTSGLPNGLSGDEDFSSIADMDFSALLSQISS

Where two headings read alike, the source gives them in different places. No constants are given. Whether binding was seen depends on the method and setting. In cells and extracts the contact can be indirect. Some results given as binding are weak or reduced against the parent protein; the word gives no strength. For part of these data: Where a sequence is shown, tags or fusion partners need not be part of it.

What all share (assay): co-IP; RAW 264.7 macrophages stimulated with LPS (80 ng/ml) for the indicated times; lysed in 1% digitonin, 2 h, 4 °C; lysates with primary antibody (anti-TAK1, anti-IKKα or anti-p65) overnight at 4 °C, protein G-Sepharose 1 h; washed with 0.1% digitonin; immunoblot; cells also with stable GFP-STRAP, GFP-STRAPΔC, shRNA-GFP or shRNA-STRAP
Experiment [1] concerns the target T1, IκB kinase alpha (IKKα), endogenous (mouse (endogenous in RAW 264.7)) (UniProt Q60680).
T1 sequence: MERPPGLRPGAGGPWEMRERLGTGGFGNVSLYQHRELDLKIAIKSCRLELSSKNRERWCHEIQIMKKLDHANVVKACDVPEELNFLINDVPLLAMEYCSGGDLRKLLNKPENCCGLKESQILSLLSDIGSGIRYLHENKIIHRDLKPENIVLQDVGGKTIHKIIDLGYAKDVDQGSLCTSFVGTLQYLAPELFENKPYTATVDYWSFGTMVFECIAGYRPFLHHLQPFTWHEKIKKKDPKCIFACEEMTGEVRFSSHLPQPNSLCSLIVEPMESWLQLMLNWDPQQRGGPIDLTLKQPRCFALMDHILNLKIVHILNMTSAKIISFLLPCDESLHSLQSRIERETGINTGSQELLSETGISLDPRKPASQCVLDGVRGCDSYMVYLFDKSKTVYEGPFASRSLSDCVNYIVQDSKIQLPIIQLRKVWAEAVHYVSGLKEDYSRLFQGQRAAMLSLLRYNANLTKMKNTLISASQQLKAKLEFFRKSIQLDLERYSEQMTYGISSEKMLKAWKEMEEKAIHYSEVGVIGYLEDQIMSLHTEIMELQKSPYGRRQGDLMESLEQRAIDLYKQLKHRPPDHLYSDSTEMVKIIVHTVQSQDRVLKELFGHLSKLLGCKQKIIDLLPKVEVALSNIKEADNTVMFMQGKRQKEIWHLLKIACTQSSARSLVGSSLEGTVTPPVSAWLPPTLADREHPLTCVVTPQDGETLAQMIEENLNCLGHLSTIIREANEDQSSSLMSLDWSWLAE

For experiment [2], the target named is T1, IκB kinase alpha (IKKα), endogenous (mouse (endogenous in RAW 264.7)). The source holds these as a separate data set.
Experiment [3] concerns the target T2, transforming growth factor β-activated kinase 1 (TAK1), endogenous (mouse (endogenous in RAW 264.7)) (UniProt Q62073).
T2 sequence: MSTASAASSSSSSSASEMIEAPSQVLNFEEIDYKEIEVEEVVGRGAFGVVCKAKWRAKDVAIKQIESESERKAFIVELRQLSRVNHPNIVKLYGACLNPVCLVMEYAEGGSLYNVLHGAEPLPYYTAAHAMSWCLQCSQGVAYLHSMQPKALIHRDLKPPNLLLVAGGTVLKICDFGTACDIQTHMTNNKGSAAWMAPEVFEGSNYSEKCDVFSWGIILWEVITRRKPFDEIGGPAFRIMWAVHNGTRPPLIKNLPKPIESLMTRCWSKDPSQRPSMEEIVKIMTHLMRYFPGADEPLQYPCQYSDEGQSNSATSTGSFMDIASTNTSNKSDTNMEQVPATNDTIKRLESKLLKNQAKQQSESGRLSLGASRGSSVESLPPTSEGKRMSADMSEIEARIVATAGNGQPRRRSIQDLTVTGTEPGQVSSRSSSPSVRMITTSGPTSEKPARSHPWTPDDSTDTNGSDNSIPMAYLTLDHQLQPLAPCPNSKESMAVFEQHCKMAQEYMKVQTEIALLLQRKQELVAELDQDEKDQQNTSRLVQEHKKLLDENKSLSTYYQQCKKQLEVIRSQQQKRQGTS

For experiment [4], the target named is nuclear factor-κB (NF-κB) subunit p65, endogenous (mouse (endogenous in RAW 264.7)) (UniProt Q04207).

In the case of “nuclear factor-κB (NF-κB) subunit p65, endogenous (from UniProt Q04207 1-549)”, the binding result in experiment [1] was “binds”.

B1: GFP-tagged STRAP (serine/threonine kinase receptor-associated protein), mouse (protein, UniProt Q9Z1Z2 1-350)
chain: MAMRQTPLTCSGHTRPVVDLAFSGITPYGYFLISACKDGKPMLRQGDTGDWIGTFLGHKGAVWGATLNKDATKAATAAADFTAKVWDAVSGDELMTLAHKHIVKTVDFTQDSNYLLTGGQDKLLRIYDLNKPEAEPKEISGHTSGIKKALWCSDDKQILSADDKTVRLWDHATMTEVKSLNFNMSVSSMEYIPEGEILVITYGRSIAFHSAVSLEPIKSFEAPATINSASLHPEKEFLVAGGEDFKLYKYDYNSGEELESYKGHFGPIHCVRFSPDGELYASGSEDGTLRLWQTVVGKTYGLWKCVLPEEDSGELAKPKIGFPETAEEELEEIASENSDSIYSSTPEVKA
For the molecule B1, the binding result in experiment [2], in experiment [3] and in experiment [4] was “binds” in each case.

B2: endogenous STRAP (serine/threonine kinase receptor-associated protein) (protein, UniProt Q9Z1Z2 1-350)
chain: MAMRQTPLTCSGHTRPVVDLAFSGITPYGYFLISACKDGKPMLRQGDTGDWIGTFLGHKGAVWGATLNKDATKAATAAADFTAKVWDAVSGDELMTLAHKHIVKTVDFTQDSNYLLTGGQDKLLRIYDLNKPEAEPKEISGHTSGIKKALWCSDDKQILSADDKTVRLWDHATMTEVKSLNFNMSVSSMEYIPEGEILVITYGRSIAFHSAVSLEPIKSFEAPATINSASLHPEKEFLVAGGEDFKLYKYDYNSGEELESYKGHFGPIHCVRFSPDGELYASGSEDGTLRLWQTVVGKTYGLWKCVLPEEDSGELAKPKIGFPETAEEELEEIASENSDSIYSSTPEVKA
B2: the binding result in experiment [2], in experiment [3] and in experiment [4] was “binds” each time.

B3: transforming growth factor β-activated kinase 1 (TAK1), endogenous (enzyme, UniProt Q62073 1-579)
chain: MSTASAASSSSSSSASEMIEAPSQVLNFEEIDYKEIEVEEVVGRGAFGVVCKAKWRAKDVAIKQIESESERKAFIVELRQLSRVNHPNIVKLYGACLNPVCLVMEYAEGGSLYNVLHGAEPLPYYTAAHAMSWCLQCSQGVAYLHSMQPKALIHRDLKPPNLLLVAGGTVLKICDFGTACDIQTHMTNNKGSAAWMAPEVFEGSNYSEKCDVFSWGIILWEVITRRKPFDEIGGPAFRIMWAVHNGTRPPLIKNLPKPIESLMTRCWSKDPSQRPSMEEIVKIMTHLMRYFPGADEPLQYPCQYSDEGQSNSATSTGSFMDIASTNTSNKSDTNMEQVPATNDTIKRLESKLLKNQAKQQSESGRLSLGASRGSSVESLPPTSEGKRMSADMSEIEARIVATAGNGQPRRRSIQDLTVTGTEPGQVSSRSSSPSVRMITTSGPTSEKPARSHPWTPDDSTDTNGSDNSIPMAYLTLDHQLQPLAPCPNSKESMAVFEQHCKMAQEYMKVQTEIALLLQRKQELVAELDQDEKDQQNTSRLVQEHKKLLDENKSLSTYYQQCKKQLEVIRSQQQKRQGTS
On to B3, for which the binding result in experiment [2] and in experiment [4] was “binds” each time.
